This note sets out measurements from PMC6399928.

Chains of the proteins cited; added tags and fusions are not shown. Residues count along the entry.
UniProt Q14247: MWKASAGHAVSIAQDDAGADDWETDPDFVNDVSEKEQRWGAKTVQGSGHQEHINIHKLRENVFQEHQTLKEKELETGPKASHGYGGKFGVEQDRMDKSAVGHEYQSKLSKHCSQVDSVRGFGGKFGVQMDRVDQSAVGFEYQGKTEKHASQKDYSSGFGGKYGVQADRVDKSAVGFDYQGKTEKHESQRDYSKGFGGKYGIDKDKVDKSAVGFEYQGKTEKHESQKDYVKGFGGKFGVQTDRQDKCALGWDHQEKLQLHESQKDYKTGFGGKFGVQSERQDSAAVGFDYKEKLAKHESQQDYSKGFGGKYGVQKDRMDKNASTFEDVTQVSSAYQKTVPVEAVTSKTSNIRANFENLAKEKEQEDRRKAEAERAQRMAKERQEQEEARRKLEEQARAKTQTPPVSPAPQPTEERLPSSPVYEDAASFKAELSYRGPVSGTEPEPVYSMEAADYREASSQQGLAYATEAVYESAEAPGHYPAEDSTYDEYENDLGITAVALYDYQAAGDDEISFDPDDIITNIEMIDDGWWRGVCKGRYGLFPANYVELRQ
UniProt P16070, residues 21-742: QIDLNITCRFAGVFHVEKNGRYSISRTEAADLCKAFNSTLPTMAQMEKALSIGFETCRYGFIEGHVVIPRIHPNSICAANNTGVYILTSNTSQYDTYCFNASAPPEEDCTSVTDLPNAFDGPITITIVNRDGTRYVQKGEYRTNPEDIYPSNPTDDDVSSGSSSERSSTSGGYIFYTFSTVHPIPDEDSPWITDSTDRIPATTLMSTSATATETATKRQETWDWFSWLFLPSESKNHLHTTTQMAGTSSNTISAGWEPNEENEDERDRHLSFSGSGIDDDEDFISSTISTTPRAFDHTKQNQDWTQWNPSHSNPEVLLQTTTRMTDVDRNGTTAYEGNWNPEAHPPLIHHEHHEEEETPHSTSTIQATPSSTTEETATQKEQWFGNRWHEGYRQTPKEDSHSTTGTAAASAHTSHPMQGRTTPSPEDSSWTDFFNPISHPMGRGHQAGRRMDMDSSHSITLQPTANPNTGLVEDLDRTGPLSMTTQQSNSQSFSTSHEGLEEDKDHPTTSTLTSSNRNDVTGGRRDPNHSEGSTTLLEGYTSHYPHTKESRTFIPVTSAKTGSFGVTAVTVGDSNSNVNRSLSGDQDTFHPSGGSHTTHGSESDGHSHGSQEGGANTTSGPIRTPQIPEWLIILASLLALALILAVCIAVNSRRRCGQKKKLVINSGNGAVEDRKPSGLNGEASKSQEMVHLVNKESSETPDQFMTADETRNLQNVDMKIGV

These are yes or no findings as the source states them, for the method shown. In cells and extracts the contact can be indirect. Some results given as binding are weak or reduced against the parent protein; the word gives no strength.

For the experiment, the target named is T1, RNF128 (human) (UniProt Q8TEB7).
T1 sequence: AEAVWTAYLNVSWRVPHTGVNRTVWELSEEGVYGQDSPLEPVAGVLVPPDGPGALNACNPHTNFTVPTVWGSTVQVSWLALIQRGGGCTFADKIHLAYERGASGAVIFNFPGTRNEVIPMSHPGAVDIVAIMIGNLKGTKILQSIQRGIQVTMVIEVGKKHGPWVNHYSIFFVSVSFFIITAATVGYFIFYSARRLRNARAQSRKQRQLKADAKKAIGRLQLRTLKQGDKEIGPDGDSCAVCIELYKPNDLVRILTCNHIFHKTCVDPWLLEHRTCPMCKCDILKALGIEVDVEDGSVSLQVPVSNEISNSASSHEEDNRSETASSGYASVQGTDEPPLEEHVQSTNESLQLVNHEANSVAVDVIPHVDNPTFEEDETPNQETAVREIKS
In words: co-IP; precleared cell lysates incubated with a primary antibody overnight at 4 °C, protein A- and G-Sepharose beads 2 h, washed three times with lysis buffer, western blot; cells and precipitating antibody not given.

Take “cortactin (CTTN) (from UniProt Q14247 1-550)”: the binding entry is “binds”. For CD44 (from UniProt P16070 21-742) the value was “binds”.
